Laboratory results: PubChem BioAssay AID1224830 (NIAID, 2016)

Assay: 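Regulators of TLR4 signalling towards TNF-alpha in macrophage-like cells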 (primary screen)
Cells: human THP-1 monocytic leukaemia cells, TNF dual-luciferase reporter clone, PMA-differentiated to macrophage-like cells
Reagent: siRNA pool against human genes, 50 nM
Duration: LPS for 4 h, given about 3 days after siRNA transfection
Challenge: bacterial LPS (TLR4 ligand), 10 ng/ml
Measured: 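TNF firefly reporter luminescence divided by renilla, normalised to the plate median, then turned into a robust z-score for each replicate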
Reading the numbers: TNF reporter robust z-score: higher = stronger TNF reporter response to LPS
Rule for the call: 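Each well counts as active if its z-score is over 2.8 or under -1.5; controls are left without a call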
Shown is a random part of about 18,000 deposited reagents. Of all reagents, about 2,900 (16%) were called active. 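Calls are made per well; low scores hint the gene aids the LPS response, high scores that it dampens it.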 A number with no mark means an inactive call. Repeated entries: four replicate wells of each siRNA pool.

The first 3 entries, ahead of the listing:
| gene | PubChem SID | TNF reporter robust z-score |
| --- | --- | --- |
| ACP6 (acid phosphatase 6, lysophosphatidic) | SID315456554 | -0.61 |
| ACP6 (acid phosphatase 6, lysophosphatidic) | SID315456554 | 0.35 |
| ACP6 (acid phosphatase 6, lysophosphatidic) | SID315456554 | 0.26 |

Main list, repeating the preview:
| gene | PubChem SID | TNF reporter robust z-score |
| --- | --- | --- |
| ACP6 (acid phosphatase 6, lysophosphatidic) | SID315456554 | -0.61 |
| ACP6 (acid phosphatase 6, lysophosphatidic) | SID315456554 | 0.35 |
| ACP6 (acid phosphatase 6, lysophosphatidic) | SID315456554 | 0.26 |
| ACP6 (acid phosphatase 6, lysophosphatidic) | SID315456554 | 0.15 |
| PGCKA1 (PDCD10 and GCKIII kinases associated 1) | SID315457565 | -0.62 |
| PGCKA1 (PDCD10 and GCKIII kinases associated 1) | SID315457565 | -0.7 |
| PGCKA1 (PDCD10 and GCKIII kinases associated 1) | SID315457565 | 0.15 |
| PGCKA1 (PDCD10 and GCKIII kinases associated 1) | SID315457565 | 0.64 |
| CALHM2 (calcium homeostasis modulator family member 2) | SID315456435 | 0.97 |
| CALHM2 (calcium homeostasis modulator family member 2) | SID315456435 | 0.09 |
| CALHM2 (calcium homeostasis modulator family member 2) | SID315456435 | -0.43 |
| CALHM2 (calcium homeostasis modulator family member 2) | SID315456435 | -0.4 |
| COL9A1 (collagen type IX alpha 1 chain) | SID315448025 | -0.55 |
| COL9A1 (collagen type IX alpha 1 chain) | SID315448025 | -0.86 |
| COL9A1 (collagen type IX alpha 1 chain) | SID315448025 | -0.42 |
| COL9A1 (collagen type IX alpha 1 chain) | SID315448025 | -0.22 |
| NUP133 (nucleoporin 133) | SID315457821 | 0.04 |
| NUP133 (nucleoporin 133) | SID315457821 | 0.54 |
| NUP133 (nucleoporin 133) | SID315457821 | -0.81 |
| NUP133 (nucleoporin 133) | SID315457821 | -0.2 |
| ITGAD (integrin subunit alpha D) | SID315449550 | 0.03 |
| ITGAD (integrin subunit alpha D) | SID315449550 | 0.36 |
| ITGAD (integrin subunit alpha D) | SID315449550 | 0.04 |
| ITGAD (integrin subunit alpha D) | SID315449550 | 0.59 |
| OR9I1 (olfactory receptor family 9 subfamily I member 1) | SID315463215 | -0.33 |
| OR9I1 (olfactory receptor family 9 subfamily I member 1) | SID315463215 | 1.07 |
| OR9I1 (olfactory receptor family 9 subfamily I member 1) | SID315463215 | 0.46 |
| OR9I1 (olfactory receptor family 9 subfamily I member 1) | SID315463215 | 1.17 |
| TNK1 (tyrosine kinase non receptor 1) | SID315452764 | -1.39 |
| TNK1 (tyrosine kinase non receptor 1) | SID315452764 | 0.29 |
| TNK1 (tyrosine kinase non receptor 1) | SID315452764 | -1.04 |
| TNK1 (tyrosine kinase non receptor 1) | SID315452764 | -1.12 |
| TMEM200C (transmembrane protein 200C) | SID315465103 | -0.13 |
| TMEM200C (transmembrane protein 200C) | SID315465103 | -0.4 |
| TMEM200C (transmembrane protein 200C) | SID315465103 | -1.04 |
| TMEM200C (transmembrane protein 200C) | SID315465103 | 0.95 |
| NPHS2 (NPHS2 stomatin family member, podocin) | SID315452317 | -0.16 |
| NPHS2 (NPHS2 stomatin family member, podocin) | SID315452317 | 1.87 |
| NPHS2 (NPHS2 stomatin family member, podocin) | SID315452317 | 1.6 |
| NPHS2 (NPHS2 stomatin family member, podocin) | SID315452317 | 1.75 |
| RBP4 (retinol binding protein 4) | SID315451082 | 1.06 |
| RBP4 (retinol binding protein 4) | SID315451082 | 0.8 |
| RBP4 (retinol binding protein 4) | SID315451082 | 0.97 |
| RBP4 (retinol binding protein 4) | SID315451082 | 1.25 |
| FITM1 (fat storage inducing transmembrane protein 1) | SID315462719 | -0.41 |
| FITM1 (fat storage inducing transmembrane protein 1) | SID315462719 | 0.15 |
| FITM1 (fat storage inducing transmembrane protein 1) | SID315462719 | 0.03 |
| FITM1 (fat storage inducing transmembrane protein 1) | SID315462719 | 0.07 |
